Experimental data as given in article PMC9279156, “A peroxisomal ubiquitin ligase complex forms a retrotranslocation channel” (Nature, 2022).
Results are given in words; binding and its absence hold for the method and conditions named. Some entries that bind do so weakly or less than the wild type. Tags and fused reporters may be left off the sequences shown.

Assays:
[1] = target: T1, T. thermophilus Pex10 (1–454) (Thermothelomyces thermophilus) (UniProt G2Q0E2); experiment: cryo-EM structure; Pex2–Pex10–Pex12–Fab complex in digitonin, PEGylated with MS(PEG)12; 3.1 Å overall resolution; both purified
T1 sequence: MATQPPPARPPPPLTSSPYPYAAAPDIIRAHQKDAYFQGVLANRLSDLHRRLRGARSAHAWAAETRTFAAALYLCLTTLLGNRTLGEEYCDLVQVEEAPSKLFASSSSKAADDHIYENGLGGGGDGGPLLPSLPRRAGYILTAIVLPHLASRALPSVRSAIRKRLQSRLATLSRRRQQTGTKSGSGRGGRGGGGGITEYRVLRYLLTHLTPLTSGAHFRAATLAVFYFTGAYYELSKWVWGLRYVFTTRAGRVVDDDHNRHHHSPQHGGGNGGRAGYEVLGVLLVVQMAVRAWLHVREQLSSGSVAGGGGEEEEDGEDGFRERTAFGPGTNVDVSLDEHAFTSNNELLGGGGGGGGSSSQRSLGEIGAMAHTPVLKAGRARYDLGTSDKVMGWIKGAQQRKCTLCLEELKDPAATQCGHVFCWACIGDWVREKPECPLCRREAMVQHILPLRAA

[2] = target: T2, T. thermophilus Pex12 (1–439) with an N-terminal SBP tag (Thermothelomyces thermophilus) (UniProt G2Q5N0); experiment: as above
T2 sequence: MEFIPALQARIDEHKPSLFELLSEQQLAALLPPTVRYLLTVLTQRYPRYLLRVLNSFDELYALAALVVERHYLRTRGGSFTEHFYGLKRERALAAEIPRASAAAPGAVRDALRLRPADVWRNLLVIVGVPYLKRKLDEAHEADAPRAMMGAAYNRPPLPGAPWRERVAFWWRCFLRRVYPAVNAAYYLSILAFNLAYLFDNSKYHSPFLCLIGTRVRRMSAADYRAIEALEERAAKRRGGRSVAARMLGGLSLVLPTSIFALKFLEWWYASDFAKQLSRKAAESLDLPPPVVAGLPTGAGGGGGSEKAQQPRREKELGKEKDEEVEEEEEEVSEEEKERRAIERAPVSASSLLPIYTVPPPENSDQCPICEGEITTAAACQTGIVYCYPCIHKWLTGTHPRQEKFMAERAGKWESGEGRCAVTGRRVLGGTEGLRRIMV

Binder | binding [1] | binding [2]
T. thermophilus Pex2 (140–495) (domain or fragment, Thermothelomyces thermophilus, UniProt G2Q1C9 140-495, looked up, Pex2 of Thermothelomyces thermophilus, residues 140-495; codon-optimised synthetic gene; also called T.t; Pex2; source: P. pastoris SMD1168, co-expressed with Pex10 and Pex12, purified (streptavidin resin, gel filtration) in digitonin) SREGTRPAFRVGQVDAELLDEELVELLRGQVREALRYVGGGGGGGGGGGGGGVGSGVAQDWEAEISLALRAVLFKLTVWDHDATYGAALQNLKYTDARRDGPALAPPSRWQKALYGLVTVGGRYLWAKWEDWLLEQDDGFEGPSPRVKRLARWTSALSTLHASAALVSFLVFLLHGRYRTLLDRLLRMRLAPPTSQVSREVSFEYLNRQLVWHAFTEFLLFVLPLVGINRWRRWLARTWRRTKKIMTADADGGAGDKKGEYSFLPERTCAICYRDQNSASSETELLAAASGGVVGSAQTDITNPYEAIPCGCTYCFVCLATRIEREEGEGWPCLRCGELIKECKPWNGDVLEEPQV | binds | binds
T. thermophilus Pex10 (1–454) (natural protein, Thermothelomyces thermophilus, UniProt G2Q0E2 1-454, looked up, Pex10 of Thermothelomyces thermophilus, residues 1-454; codon-optimised synthetic gene; also called T.t; Pex10; source: P. pastoris SMD1168, co-expressed with Pex2 and Pex12, purified (streptavidin resin, gel filtration) in digitonin) MATQPPPARPPPPLTSSPYPYAAAPDIIRAHQKDAYFQGVLANRLSDLHRRLRGARSAHAWAAETRTFAAALYLCLTTLLGNRTLGEEYCDLVQVEEAPSKLFASSSSKAADDHIYENGLGGGGDGGPLLPSLPRRAGYILTAIVLPHLASRALPSVRSAIRKRLQSRLATLSRRRQQTGTKSGSGRGGRGGGGGITEYRVLRYLLTHLTPLTSGAHFRAATLAVFYFTGAYYELSKWVWGLRYVFTTRAGRVVDDDHNRHHHSPQHGGGNGGRAGYEVLGVLLVVQMAVRAWLHVREQLSSGSVAGGGGEEEEDGEDGFRERTAFGPGTNVDVSLDEHAFTSNNELLGGGGGGGGSSSQRSLGEIGAMAHTPVLKAGRARYDLGTSDKVMGWIKGAQQRKCTLCLEELKDPAATQCGHVFCWACIGDWVREKPECPLCRREAMVQHILPLRAA | – | binds
